Results deposited as PubChem BioAssay AID1224828 (NIAID, 2016).

Aim: 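Find genes required for NF-kappaB p65 moving into the nucleus after LPS in mouse macrophages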 (primary screen)
Cell system: mouse RAW264.7 G9 macrophage reporter cells (GFP-p65, Tnf promoter-mCherry)
Reagents: siRNA pool against mouse genes, 100 nM
Duration: 2 days siRNA transfection, then 40 min LPS before fixation
Treatment: LPS (Salmonella minnesota R595) at 10 ng/ml
Measured: 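Imaged p65 nuclear translocation ratio, normalised to the plate median, converted to robust z-scores and averaged across two replicates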
Reading the numbers: p65 translocation robust z-score: higher = more nuclear NF-kappaB p65 after LPS than the plate median; nuclear/cytoplasmic p65 ratio: higher = more nuclear NF-kappaB p65
Call rule: 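Active if robust z is above 3.3 (negative regulators) or below -1.56, the Tlr4 control median (positive regulators); activity score 50 or more; control wells not called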
Calls: active = hit (p65 shift raised or lowered); inactive = no clear change
The whole screen tested about 17,000 reagents; below is a part drawn at random. Over the whole deposit, 762 (4.5%) were called active. 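Active calls include both raised and lowered p65 entry, mostly lowered; wells with fewer than 50 cells lack a z-score.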 Raw values are not corrected between plates. Reagents against one gene are numbered here. Reagent sequences are not shown.

no.	Gene	pool no.	p65 translocation robust z-score	nuclear/cytoplasmic p65 ratio, rep 1	nuclear/cytoplasmic p65 ratio, rep 2	low cell count flag	activity call
1	Spsb1 (GeneID 74646)	1		1.12	1.07	fewer than 50 cells per well; well left out of scoring	inactive
2	Eid1 (GeneID 58521)	1	0.62	1.56	2	enough cells to score	inactive
3	Nodal (GeneID 18119)	1	-1.53	1.48	1.27	enough cells to score	inactive
4	Dhx8 (GeneID 217207)	1		1.17	1.25	fewer than 50 cells per well; well left out of scoring	inactive
5	Mc3r (GeneID 17201)	1	-0.32	1.45	1.55	enough cells to score	inactive
6	Ccdc198 (GeneID 67082)	1	-0.04	1.39	1.43	enough cells to score	inactive
7	Calm4 (GeneID 80796)	1	-0.78	1.47	1.52	enough cells to score	inactive
8	Sfr1 (GeneID 67788)	1	-0.25	1.29	1.47	enough cells to score	inactive
9	Xrcc1 (GeneID 22594)	1	-0.54	1.38	1.48	enough cells to score	inactive
10	Or4l15 (GeneID 258485)	1		1.8	1.3	fewer than 50 cells per well; well left out of scoring	inactive
11	Gnb1 (GeneID 14688)	1	1	1.63	1.75	enough cells to score	inactive
12	Ksr2 (GeneID 333050)	1	-0.12	1.67	1.24	enough cells to score	inactive
13	Rell1 (GeneID 100532)	1	0.5	1.47	1.57	enough cells to score	inactive
14	Ell2 (GeneID 192657)	1		1.55	1.37	fewer than 50 cells per well; well left out of scoring	inactive
15	Tfam (GeneID 21780)	1	1.09	1.6	1.75	enough cells to score	inactive
16	Mpzl1 (GeneID 68481)	1	-0.1	1.62	1.36	enough cells to score	inactive
17	Sh2b1 (GeneID 20399)	1		1.28	1.17	fewer than 50 cells per well; well left out of scoring	inactive
18	Defb13 (GeneID 246083)	1	0.36	1.65	1.57	enough cells to score	inactive
19	Mcm9 (GeneID 71567)	1		1.21	1.26	fewer than 50 cells per well; well left out of scoring	inactive
20	Pygm (GeneID 19309)	1	-1.83	1.27	1.48	enough cells to score	active
21	Gfod2 (GeneID 70575)	1		1.43	1.07	fewer than 50 cells per well; well left out of scoring	inactive
22	Il17rc (GeneID 171095)	1		1.34	1.26	fewer than 50 cells per well; well left out of scoring	inactive
23	Nap1l2 (GeneID 17954)	1	0.79	2.03	1.61	enough cells to score	inactive
24	Pgcka1 (GeneID 76261)	1	-0.58	1.3	1.52	enough cells to score	inactive
25	Or14c41 (GeneID 258850)	1		1.42	1.27	fewer than 50 cells per well; well left out of scoring	inactive
26	Zmym3 (GeneID 56364)	1	1.81	1.66	1.45	enough cells to score	inactive
27	Myo1f (GeneID 17916)	1	0.68	1.91	1.68	enough cells to score	inactive
28	Mtmr7 (GeneID 54384)	1	1.31	1.98	1.81	enough cells to score	inactive
29	Cyp2ab1 (GeneID 224044)	1	-0.03	1.6	1.47	enough cells to score	inactive
30	Tmem170 (GeneID 66817)	1	-1.38	1.24	1.35	enough cells to score	inactive
31	Erlin1 (GeneID 226144)	1	3.2	2.07	1.8	enough cells to score	inactive
32	Efcab12 (GeneID 212516)	1	0.08	1.43	1.55	enough cells to score	inactive
33	Med8 (GeneID 80509)	1		1.44	1.54	fewer than 50 cells per well; well left out of scoring	inactive
34	Cdnf (GeneID 227526)	1	0.61	1.46	1.69	enough cells to score	inactive
35	Spry2 (GeneID 24064)	1	-0.54	1.41	1.54	enough cells to score	inactive
36	Kcnh1 (GeneID 16510)	1	0.87	1.64	1.45	enough cells to score	inactive
37	Rab36 (GeneID 76877)	1	0.05	1.54	1.51	enough cells to score	inactive
38	Mttp (GeneID 17777)	1	-0.85	1.3	1.26	enough cells to score	inactive
39	Get3 (GeneID 56495)	1	-0.34	1.5	1.52	enough cells to score	inactive
40	Khdrbs3 (GeneID 13992)	1	2.6	1.31	1.78	enough cells to score	inactive
41	Vmn1r85 (GeneID 252909)	1		1.54	1.22	fewer than 50 cells per well; well left out of scoring	inactive
42	Zfp697 (GeneID 242109)	1	0.47	1.65	1.79	enough cells to score	inactive
43	Kif5a (GeneID 16572)	1	-0.32	1.39	1.38	enough cells to score	inactive
44	Igf2 (GeneID 16002)	1	-1.03	1.27	1.27	enough cells to score	inactive
45	Zfp37 (GeneID 22696)	1	-0.49	1.52	1.36	enough cells to score	inactive
46	Cxcr3 (GeneID 12766)	1	1.34	1.63	1.85	enough cells to score	inactive
47	Lrrc24 (GeneID 378937)	1	0.06	1.34	1.5	enough cells to score	inactive
48	Lgi3 (GeneID 213469)	1	1.37	1.96	1.72	enough cells to score	inactive
49	Syt5 (GeneID 53420)	1		1.14	1.03	fewer than 50 cells per well; well left out of scoring	inactive
50	Eda2r (GeneID 245527)	1	-0.13	1.51	1.47	enough cells to score	inactive
51	Fkbp9 (GeneID 27055)	1	2.91	1.74	2.12	enough cells to score	inactive
52	Dclk2 (GeneID 70762)	1	-1.32	1.61	1.22	enough cells to score	inactive
53	Ppp1r42 (GeneID 69312)	1	-0.66	1.31	1.22	enough cells to score	inactive
54	Papola (GeneID 18789)	1	-0.7	1.31	1.2	enough cells to score	inactive
55	Ott (GeneID 18422)	1		1.35	1.01	fewer than 50 cells per well; well left out of scoring	inactive
56	Ap3b1 (GeneID 11774)	1	-0.31	1.57	1.58	enough cells to score	inactive
57	Mettl24 (GeneID 327747)	1	0.22	1.46	1.57	enough cells to score	inactive
58	Gys1 (GeneID 14936)	1	-0.44	1.36	1.33	enough cells to score	inactive
59	Gys1 (GeneID 14936)	2	-0.46	1.69	1.37	enough cells to score	inactive
60	Alpk3 (GeneID 116904)	1	-0.36	1.54	1.41	enough cells to score	inactive
61	Ovol1 (GeneID 18426)	1		1.34	1	fewer than 50 cells per well; well left out of scoring	inactive
62	Odr4 (GeneID 226499)	1	-1.94	1.39	1.52	enough cells to score	active
63	Fbxo41 (GeneID 330369)	1	0.91	1.6	1.78	enough cells to score	inactive
64	Cep120 (GeneID 225523)	1	2.76	1.74	2.17	enough cells to score	inactive
65	Bglap (GeneID 12096)	1		1.1	1.65	fewer than 50 cells per well; well left out of scoring	inactive
66	Acsbg1 (GeneID 94180)	1		1.35	1.1	fewer than 50 cells per well; well left out of scoring	inactive
67	Slc17a8 (GeneID 216227)	1		1.67	0	fewer than 50 cells per well; well left out of scoring	inactive
68	Rdh16f2 (GeneID 216454)	1	-0.93	1.48	1.58	enough cells to score	inactive
69	Defb15 (GeneID 246082)	1	0.31	1.63	1.57	enough cells to score	inactive
70	Tert (GeneID 21752)	1	0.9	1.54	1.75	enough cells to score	inactive
71	Cd46 (GeneID 17221)	1	0.47	1.5	1.47	enough cells to score	inactive
72	Ctnnal1 (GeneID 54366)	1	-0.24	1.51	1.28	enough cells to score	inactive
73	Cops3 (GeneID 26572)	1	-0.04	1.46	1.38	enough cells to score	inactive
74	Depdc7 (GeneID 211896)	1	1.59	1.47	1.81	enough cells to score	inactive
75	Dlg4 (GeneID 13385)	1		1.62	1.5	fewer than 50 cells per well; well left out of scoring	inactive

In a second layout: results already given
Tmem170 (GeneID 66817)
- p65 translocation robust z-score: -1.38
- nuclear/cytoplasmic p65 ratio, rep 1: 1.24
- nuclear/cytoplasmic p65 ratio, rep 2: 1.35
- low cell count flag: enough cells to score
- activity call: inactive

Erlin1 (GeneID 226144)
- p65 translocation robust z-score: 3.2
- nuclear/cytoplasmic p65 ratio, rep 1: 2.07
- nuclear/cytoplasmic p65 ratio, rep 2: 1.8
- low cell count flag: enough cells to score
- activity call: inactive

Efcab12 (GeneID 212516)
- p65 translocation robust z-score: 0.08
- nuclear/cytoplasmic p65 ratio, rep 1: 1.43
- nuclear/cytoplasmic p65 ratio, rep 2: 1.55
- low cell count flag: enough cells to score
- activity call: inactive

Med8 (GeneID 80509)
- nuclear/cytoplasmic p65 ratio, rep 1: 1.44
- nuclear/cytoplasmic p65 ratio, rep 2: 1.54
- low cell count flag: fewer than 50 cells per well; well left out of scoring
- activity call: inactive

Cdnf (GeneID 227526)
- p65 translocation robust z-score: 0.61
- nuclear/cytoplasmic p65 ratio, rep 1: 1.46
- nuclear/cytoplasmic p65 ratio, rep 2: 1.69
- low cell count flag: enough cells to score
- activity call: inactive

Spry2 (GeneID 24064)
- p65 translocation robust z-score: -0.54
- nuclear/cytoplasmic p65 ratio, rep 1: 1.41
- nuclear/cytoplasmic p65 ratio, rep 2: 1.54
- low cell count flag: enough cells to score
- activity call: inactive

Kcnh1 (GeneID 16510)
- p65 translocation robust z-score: 0.87
- nuclear/cytoplasmic p65 ratio, rep 1: 1.64
- nuclear/cytoplasmic p65 ratio, rep 2: 1.45
- low cell count flag: enough cells to score
- activity call: inactive

Rab36 (GeneID 76877)
- p65 translocation robust z-score: 0.05
- nuclear/cytoplasmic p65 ratio, rep 1: 1.54
- nuclear/cytoplasmic p65 ratio, rep 2: 1.51
- low cell count flag: enough cells to score
- activity call: inactive

Mttp (GeneID 17777)
- p65 translocation robust z-score: -0.85
- nuclear/cytoplasmic p65 ratio, rep 1: 1.3
- nuclear/cytoplasmic p65 ratio, rep 2: 1.26
- low cell count flag: enough cells to score
- activity call: inactive

Get3 (GeneID 56495)
- p65 translocation robust z-score: -0.34
- nuclear/cytoplasmic p65 ratio, rep 1: 1.5
- nuclear/cytoplasmic p65 ratio, rep 2: 1.52
- low cell count flag: enough cells to score
- activity call: inactive

Khdrbs3 (GeneID 13992)
- p65 translocation robust z-score: 2.6
- nuclear/cytoplasmic p65 ratio, rep 1: 1.31
- nuclear/cytoplasmic p65 ratio, rep 2: 1.78
- low cell count flag: enough cells to score
- activity call: inactive

Vmn1r85 (GeneID 252909)
- nuclear/cytoplasmic p65 ratio, rep 1: 1.54
- nuclear/cytoplasmic p65 ratio, rep 2: 1.22
- low cell count flag: fewer than 50 cells per well; well left out of scoring
- activity call: inactive
